Reference: patent publication US20250002548A1, “Wild Boar Cathelicidin Peptide Variants and Vectors Encoding the Same for Uses in Managing Coronavirus Infections” (Emory University, priority 2021, published 2025)
“Also recorded” adds a separate entry of the source. Read-outs that look alike come from different tables or passages of the source. At least one peptide structure holds a part that was inferred or is arguable (an end, a ring closure or a residue). Square brackets hold non-standard residues; d marks the D form. Peptide text beside a SMILES is read from it.

The chains behind the UniProt entries cited, without tags or fusion partners. Residues count along the entry.
UniProt K9N5Q8, 994-1044 limits assumed: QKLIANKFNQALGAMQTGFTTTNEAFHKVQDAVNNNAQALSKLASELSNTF

Legend:
[1] = target: heptad repeat 1 of SARS-CoV-2 (Severe acute respiratory syndrome coronavirus 2, UniProt P0DTC2); experiment: binding to heptad repeat 1 of SARS-CoV-2
[2] = target: heptad repeat 1 of SARS-CoV (Severe acute respiratory syndrome coronavirus, UniProt P59594); assay type: binding
[3] = target: heptad repeat 1 of MERS-CoV (Middle East respiratory syndrome-related coronavirus, UniProt K9N5Q8); assay type: binding

Structure (SMILES)	SARS-CoV-2 inhibition (in words) (SARS-CoV-2)	affinity of binding to heptad repeat 1 relative to heptad repeat 2 of SARS-CoV-2 [1]	binding to heptad repeat 1 of SARS-CoV [2]	binding to heptad repeat 1 of MERS-CoV [3]	SARS-CoV-2 inhibition (in words) (SARS-CoV-2; listed as pSer)
CC[C@@H](C)[C@@H](NC(=O)[C@H]1CCCN1C(=O)[C@H]1CCCN1C(=O)[C@H](NC(=O)[C@@H](Cc1c[nH]c2ccccc12)NC(=O)[C@@H](CCCCN)NC(=O)[C@@H](CC(C)C)NC(=O)[C@H](NC(=O)[C@@H](CCCCN)NC(=O)CNC(=O)[C@H](NC(=O)[C@@H](CCCCN)NC(=O)[C@@H](CCCCN)NC(=O)[C@@H](CC(C)C)NC(=O)[C@@H](CCCNC(=N)N)NC(=O)[C@@H](CCCCN)NC(=O)[C@@H](CCCNC(=N)N)NC(=O)[C@H](NC(=O)[C@@H](CCCCN)NC(=O)[C@@H](CCCCN)NC(=O)[C@@H](CCCNC(=N)N)NC(=O)[C@@H](CC(C)C)NC(=O)[C@@H](CCCNC(=N)N)NC(=O)[C@@H](CCCNC(=N)N)NC(=O)[C@@H](Cc1ccccc1)NC(=O)[C@@H](CCCNC(=N)N)NC(=O)CNC(=O)[C@H](N)C(C)C)[C@H](C)O)[C@H](C)CC)C(C)C)[C@H](C)CC)C(=O)N[C@@H](C(=O)NCC(=O)N[C@H](CO)C(=O)N[C@@H](C(=O)N1CCC[C@@H]1C(=O)N[C@H](CC(C)C)C(=O)NCC(=O)N[C@H](CO)C(=O)NCC(=O)O)[C@H](C)CC)C(C)C [D-Yongshi] (H-[dV]G[dR][dF][dR][dR][dL][dR][dK][dK][dT][dR][dK][dR][dL][dK][dK][dI]G[dK][dV][dL][dK][dW][dI][dP][dP][dI][dV]G[dS][dI][dP][dL]G[dS]G-OH)	without a comparable increase in SARS-CoV-2 virus inhibition				
CC[C@H](C)[C@H](NC(=O)[C@H](CCCCN)NC(=O)[C@H](CCCCN)NC(=O)[C@H](CC(C)C)NC(=O)[C@H](CCCNC(=N)N)NC(=O)[C@H](CCCCN)NC(=O)[C@H](CCCNC(=N)N)NC(=O)[C@@H](NC(=O)[C@H](CCCCN)NC(=O)[C@H](CCCCN)NC(=O)[C@H](CCCNC(=N)N)NC(=O)[C@H](CC(C)C)NC(=O)[C@H](CCCNC(=N)N)NC(=O)[C@H](CCCNC(=N)N)NC(=O)[C@H](Cc1ccccc1)NC(=O)[C@H](CCCNC(=N)N)NC(=O)CNC(=O)[C@@H](N)C(C)C)[C@@H](C)O)C(=O)NCC(=O)N[C@@H](CCCCN)C(=O)N[C@H](C(=O)N[C@@H](CC(C)C)C(=O)N[C@@H](CCCCN)C(=O)N[C@@H](Cc1c[nH]c2ccccc12)C(=O)N[C@H](C(=O)N1CCC[C@H]1C(=O)N1CCC[C@H]1C(=O)N[C@H](C(=O)N[C@H](C(=O)NCC(=O)N[C@@H](CO)C(=O)N[C@H](C(=O)N1CCC[C@H]1C(=O)N[C@@H](CC(C)C)C(=O)NCC(=O)N[C@@H](CO)C(=O)NCC(=O)O)[C@@H](C)CC)C(C)C)[C@@H](C)CC)[C@@H](C)CC)C(C)C [Yongshi] (H-VGRFRRLRKKTRKRLKKIGKVLKWIPPIVGSIPLGSG-OH)	inhibited SARS-CoV-2 just as well as the PMAP-36R	5 fold	binds to the heptad repeat 1	binds to the heptad repeat 1	did not reduce SARS-CoV-2 inhibition; also recorded: does not reduce SARS-CoV-2 inhibition
